Reference: patent publication US8815891B2, “Tricyclic derivative or pharmaceutically acceptable salts thereof, preparation method thereof, and pharmaceutical composition containing the same” (Je Il Pharmaceutical Co., Ltd., priority 2008, dated 2014)

Sequences of proteins named here, by UniProt entry; tags and fusion partners are left off.
UniProt P09874, whole entry: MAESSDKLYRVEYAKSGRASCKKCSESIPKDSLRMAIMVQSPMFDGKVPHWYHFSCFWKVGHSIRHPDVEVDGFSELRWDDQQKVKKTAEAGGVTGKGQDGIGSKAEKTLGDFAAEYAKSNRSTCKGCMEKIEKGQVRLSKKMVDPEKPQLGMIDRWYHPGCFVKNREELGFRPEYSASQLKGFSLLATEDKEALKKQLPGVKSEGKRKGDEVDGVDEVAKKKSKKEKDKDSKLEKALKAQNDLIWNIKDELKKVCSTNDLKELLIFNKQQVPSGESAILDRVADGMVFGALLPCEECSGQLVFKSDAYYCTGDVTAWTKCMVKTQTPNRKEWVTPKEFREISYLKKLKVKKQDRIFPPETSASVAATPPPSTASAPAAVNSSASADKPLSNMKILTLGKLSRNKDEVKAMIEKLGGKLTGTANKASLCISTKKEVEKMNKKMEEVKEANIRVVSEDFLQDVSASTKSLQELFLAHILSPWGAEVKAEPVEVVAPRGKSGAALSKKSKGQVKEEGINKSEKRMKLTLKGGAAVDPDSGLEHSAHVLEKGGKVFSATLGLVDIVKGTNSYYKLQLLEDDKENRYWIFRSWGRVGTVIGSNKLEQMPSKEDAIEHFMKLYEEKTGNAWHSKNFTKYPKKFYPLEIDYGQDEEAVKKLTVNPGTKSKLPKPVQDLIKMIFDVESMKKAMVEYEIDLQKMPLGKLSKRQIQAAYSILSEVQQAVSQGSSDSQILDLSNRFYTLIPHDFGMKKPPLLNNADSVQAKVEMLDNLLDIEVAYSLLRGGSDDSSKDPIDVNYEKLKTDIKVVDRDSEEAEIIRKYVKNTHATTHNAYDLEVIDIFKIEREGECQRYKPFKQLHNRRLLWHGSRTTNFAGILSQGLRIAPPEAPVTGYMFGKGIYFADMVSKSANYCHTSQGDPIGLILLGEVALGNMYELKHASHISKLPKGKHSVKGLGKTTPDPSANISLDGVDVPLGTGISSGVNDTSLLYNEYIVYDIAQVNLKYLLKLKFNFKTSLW

Biological target: PARP-1 enzyme (Homo sapiens (Human), UniProt P09874)
Assay: Poly(ADP-ribose)polymerase [PARP-1] enzyme inhibitory activity (Trevigen PARP Assay kit)
Type: biochemical
Conditions: read-out: PARP-1 Inhibitory activity IC50; tested form: 2HCl

Question: With `CCOC(=O)CCNCc1ccc2c3c(c(=O)[nH]c2c1)CCCN3` as the compound, how does the IC50 read?
Answer: 540 nM

The structures given here were assigned with low confidence; some may be wrong.
